Laboratory results: patent US10159726B2, “Peptides, combination of peptides and scaffolds for use in immunotherapeutic treatment of various cancers” (Immatics Biotechnologies GmbH, priority 2015, dated 2018)

Experiments:
[1] = tested on: HLA-A*02 molecules of primary tumors; assay: Identification and relative LC-MS quantitation of HLA-A*02 tumor-associated peptides presented on tissue samples (XPRESIDENT presentation profiles); design: species or system human; conditions: for number of cancer tissues on which the peptide was found presented / number of cell lines on which the peptide was found presented / number of normal tissues on which the peptide was found presented: FIG. 1 presentation profile, shown are only samples where the peptide was found to be presented; for presentation on various cancer entities: cancer entities named in the text as examples from Table 8
[2] = tested on: source genes of selected peptides; assay: Expression profiling of source genes by in-house RNAseq, tumor vs normal tissues (target coverage); design: species or system human
[3] = Table 8A: selected HLA-A*02-binding tumor-associated peptides, cancer entities on which the peptide was found presented
[4] = Table 8B: selected HLA-A*02 peptides, presentation on additional cancer entities

Substance	Peptide Presentation on cancer entities [1, 3]	Peptide Presentation on cancer entities [1, 4]	also measured
53: peptide found in ATR (gene looked up) (SLLSHVIVA; listed as Homo sapiens) [compound 53]	clPC, RCC, GBC_CCC, UBC, NSCLC	HCC, AML, OC, OSCAR, HNSCC, MEL, CLL, NHL, BRCA	Target coverage, over-expression of source gene, AML ([2]; AML (N = 7), over-expression = more than 1.5-fold higher expression on tumor vs highest-expressing relevant normal tissue, in-house RNASeq): I (<19% over-expression = I); Target coverage, over-expression of source gene, BRCA ([2]; BRCA (N = 10), over-expression = more than 1.5-fold vs highest normal tissue, in-house RNASeq): II (20-49% = II); Target coverage, over-expression of source gene, CLL ([2]; CLL (N = 10), over-expression = more than 1.5-fold vs highest normal tissue, in-house RNASeq): I (<19% over-expression = I); Target coverage, over-expression of source gene, CRC ([2]; CRC (N = 20), over-expression = more than 1.5-fold vs highest normal tissue, in-house RNASeq): II (20-49% = II); Target coverage, over-expression of source gene, GB ([2]; GB (N = 24), over-expression = more than 1.5-fold vs highest normal tissue, in-house RNASeq): I (<19% over-expression = I); Target coverage, over-expression of source gene, HCC ([2]; HCC (N = 15), over-expression = more than 1.5-fold vs highest normal tissue, in-house RNASeq): I (<19% over-expression = I); Target coverage, over-expression of source gene, OC ([2]; OC (N = 12), over-expression = more than 1.5-fold vs highest normal tissue, in-house RNASeq): II (20-49% = II); Target coverage, over-expression of source gene, OSCAR ([2]; OSCAR (N = 11), over-expression = more than 1.5-fold vs highest normal tissue, in-house RNASeq): II (20-49% = II); Target coverage, over-expression of source gene, PC ([2]; PC (N = 26), over-expression = more than 1.5-fold vs highest normal tissue, in-house RNASeq): I (<19% over-expression = I); Target coverage, over-expression of source gene, RCC ([2]; RCC (N = 10), over-expression = more than 1.5-fold vs highest normal tissue, in-house RNASeq): I (<19% over-expression = I); Target coverage, over-expression of source gene, SCLC ([2]; SCLC (N = 10), over-expression = more than 1.5-fold vs highest normal tissue, in-house RNASeq): II (20-49% = II); Target coverage for source genes of selected peptides, GBC_CCC (N = 10) ([2]; gallbladder adenocarcinoma and cholangiocarcinoma, share of tumors with more than 1.5-fold higher expression than the highest-expressing relevant normal tissue, in-house RNAseq): II (20-49% = II); Target coverage for source genes of selected peptides, GC (N = 11) ([2]; gastric cancer, share of tumors with more than 1.5-fold higher expression than the highest-expressing relevant normal tissue, in-house RNAseq): I (<19% over-expression = I); Target coverage for source genes of selected peptides, HNSCC (N = 10) ([2]; head and neck small cell carcinoma, share of tumors with more than 1.5-fold higher expression than the highest-expressing relevant normal tissue, in-house RNAseq): I (<19% over-expression = I); Target coverage for source genes of selected peptides, MEL (N = 10) ([2]; melanoma, share of tumors with more than 1.5-fold higher expression than the highest-expressing relevant normal tissue, in-house RNAseq): I (<19% over-expression = I); Target coverage for source genes of selected peptides, NHL (N = 10) ([2]; non-Hodgkin lymphoma, share of tumors with more than 1.5-fold higher expression than the highest-expressing relevant normal tissue, in-house RNAseq): III (50-69% = III); Target coverage, over-expression of source gene, pNSCLC ([2]; pNSCLC (N = 11), over-expression = more than 1.5-fold vs highest normal tissue, in-house RNASeq): II (20-49% = II); Target coverage for source genes of selected peptides, PCA (n = 10) ([2]; prostate cancer and benign prostate hyperplasia, share of tumors with more than 1.5-fold higher expression than the highest-expressing relevant normal tissue, in-house RNAseq): I (<19% over-expression = I); Target coverage for source genes of selected peptides, UBC (N = 10) ([2]; urinary bladder cancer, share of tumors with more than 1.5-fold higher expression than the highest-expressing relevant normal tissue, in-house RNAseq): I (<19% over-expression = I); Target coverage for source genes of selected peptides, UTC (N = 10) ([2]; uterine cancer, share of tumors with more than 1.5-fold higher expression than the highest-expressing relevant normal tissue, in-house RNAseq): II (20-49% = II)
77 (IVLSTIASV; listed as Homo sapiens) [compound 77]	clPC, CRC, PCA	AML	–
78 (LLWGHPRVA; listed as Homo sapiens) [compound 78]	–	NSCLC	–
79 (SLVPLQILL; listed as Homo sapiens) [compound 79]	–	HCC	–
80 (TLDEYLTYL; listed as Homo sapiens) [compound 80]	–	HCC	–
81 (VLFLGKLLV; listed as Homo sapiens) [compound 81]	CRC, UBC	HNSCC	–
82 (VLLRVLIL; listed as Homo sapiens) [compound 82]	NSCLC, TC	–	–
83 (ELLEYLPQL; listed as Homo sapiens) [compound 83]	PC, GBC_CCC	–	–
84 (FLEEEITRV; listed as Homo sapiens) [compound 84]	CRC, GC	–	–
85 (STLDGSLHAV; listed as Homo sapiens) [compound 85]	OSCAR, PCA, GC	–	–
86 (LLVTSLVVV; listed as Homo sapiens) [compound 86]	–	HCC, GBC_CCC	–
87 (YLTEVFLHVV; listed as Homo sapiens) [compound 87]	CLL, NHL	–	–
88 (ILLNTEDLASL; listed as Homo sapiens) [compound 88]	–	RCC	–
89 (YLVAHNLLL; listed as Homo sapiens) [compound 89]	RCC	–	–
91 (SSLEPQIQPV; listed as Homo sapiens) [compound 91]	–	MEL, CLL	–
93 (SLLTQPIFL; listed as Homo sapiens) [compound 93]	RCC, HCC	GBC_CCC	–
322 (ALVSGGVAQA; listed as Homo sapiens) [compound 322]	GBC_CCC, OSCAR, BRCA, CLL, UBC, HCC, PC, SCLC, NSCLC, CRC, OC, NHL	AML, GC, clPC, UTC, MEL	–
323 (ILSVVNSQL; listed as Homo sapiens) [compound 323]	CRC, GC, BRCA, OC, CLL, NSCLC, NHL	MEL, GBC_CCC, AML, OSCAR	–
324 (AIFDFCPSV; listed as Homo sapiens) [compound 324]	NSCLC, CRC, GC, MEL, GB, OSCAR, CLL	BRCA, NHL, UTC, AML, HNSCC	–
325 (RLLPKVQEV; listed as Homo sapiens) [compound 325]	OSCAR, NSCLC, CRC, SCLC, OC	AML, BRCA, UBC, GC	–

Substance	Peptide Presentation on cancer entities [1, 3]	Peptide Presentation on cancer entities [1, 4]	also measured
326 (SLLPLVWKI; listed as Homo sapiens) [compound 326]	NSCLC, CRC, GB, RCC, MEL, CLL, TC	AML	–
327 (SIGDIFLKY; listed as Homo sapiens) [compound 327]	GC, GB, CRC, RCC, NSCLC	MEL, AML	–
328 (SVDSAPAAV; listed as Homo sapiens) [compound 328]	SCLC, OC, PC, OSCAR, RCC, NSCLC, UBC	NHL, BRCA, AML, UTC, CLL, HNSCC, MEL	–
330 (FLWPKEVEL; listed as Homo sapiens) [compound 330]	NSCLC, BRCA, SCLC, OC, CLL, NHL	AML	–
333 (GTFLEGVAK; listed as Homo sapiens) [compound 333]	RCC, CLL, HCC	MEL, NSCLC	–
334 (GRADALRVL; listed as Homo sapiens) [compound 334]	BRCA, SCLC, CLL	MEL, GBC_CCC, AML	–
336 (GLMDGSPHFL; listed as Homo sapiens) [compound 336]	PC, NSCLC	MEL	–
339 (VLGPGPPPL; listed as Homo sapiens) [compound 339]	NSCLC, clPC, CLL, NHL	MEL, GB, UTC, AML, HCC	–
FITDFYTTV (listed as Homo sapiens) [SEQ ID NO: 66]	–	–	number of cancer tissues on which the peptide was found presented [1]: 13; number of cell lines on which the peptide was found presented [1]: 1; number of normal tissues on which the peptide was found presented [1]: 1
HLYNNEEQV (listed as Homo sapiens) [SEQ ID NO: 16]	–	–	number of cancer tissues on which the peptide was found presented [1]: 15; number of cell lines on which the peptide was found presented [1]: 1
LLLPLLPPLSPSLG (listed as Homo sapiens) [SEQ ID NO: 33]	–	–	number of cancer tissues on which the peptide was found presented [1]: 22; number of cell lines on which the peptide was found presented [1]: 1; number of normal tissues on which the peptide was found presented [1]: 1
RLLPKVQEV (listed as Homo sapiens) [SEQ ID NO: 325]	–	–	number of cancer tissues on which the peptide was found presented [1]: 22; number of cell lines on which the peptide was found presented [1]: 4
SEQ ID No. 1 (PLWGKVFYL; listed as Homo sapiens)	–	–	presentation on various cancer entities [1]: urinary bladder cancer, esophageal cancer, including cancer of the gastric-esophageal junction, hepatocellular carcinoma, non-small cell lung cancer, and pancreatic cancer
SEQ ID No. 2 (ALYGKLLKL; listed as Homo sapiens)	–	–	presentation on various cancer entities [1]: renal cancer, esophageal cancer, including cancer of the gastric-esophageal, glioblastoma
SLLALPQDLQA (listed as Homo sapiens) [SEQ ID NO: 40]	–	–	number of cancer tissues on which the peptide was found presented [1]: 21
SLLSHVIVA (listed as Homo sapiens) [SEQ ID NO: 53]	–	–	number of cancer tissues on which the peptide was found presented [1]: 21; number of cell lines on which the peptide was found presented [1]: 3
VLGPGPPPL (listed as Homo sapiens) [SEQ ID NO: 339]	–	–	number of cancer tissues on which the peptide was found presented [1]: 19; number of cell lines on which the peptide was found presented [1]: 2
VLSPFILTL (listed as Homo sapiens) [SEQ ID NO: 42]	–	–	number of cancer tissues on which the peptide was found presented [1]: 18
YVLPKLYVKL (listed as Homo sapiens) [SEQ ID NO: 35]	–	–	number of cancer tissues on which the peptide was found presented [1]: 8; number of normal tissues on which the peptide was found presented [1]: 1

For part of these data: For expression read-outs the peptide stands for its source gene, whose mRNA was measured; the gene is not named for every peptide.
